Laboratory results reported in patent US6075018A, “1-[2-(substituted vinyl)]-3,4-dihydro-4-dihydro-5H-2,3-benzodiazepine derivatives” (priority 1995, dated 2000).
The name of at least one read-out is uncertain.

Biological target: binding site specific for homophtalazines (2,3-benzodiazepines)
Experiment: Displacement of 3H-girisopam from the homophtalazine (2,3-benzodiazepine) binding site
Conditions: 5 nM of 3H-girisopam

COc1cc2c(cc1OC)C(c1cccc(Cl)c1)=NN=C(C)C2 [Girisopam, 1-(3-chlorophenyl)-4-methyl-7,8-dimethoxy-5H-2,3-benzodiazepine, reference compound]
Ki: 40 nM
